Source: US20140121213A1, “VOLTAGE-GATED SODIUM CHANNEL BLOCKERS” (priority 2011, published 2014)
Where a name gives a salt, the structure may show the parent alone. Some results were stated once for a whole list of compounds, not compound by compound. For at least one compound, name, drawing or mass did not settle the structure.

Protein sequences, listed by entry. Tags and fused reporters are not part of them.
UniProt Q9NY46, whole entry: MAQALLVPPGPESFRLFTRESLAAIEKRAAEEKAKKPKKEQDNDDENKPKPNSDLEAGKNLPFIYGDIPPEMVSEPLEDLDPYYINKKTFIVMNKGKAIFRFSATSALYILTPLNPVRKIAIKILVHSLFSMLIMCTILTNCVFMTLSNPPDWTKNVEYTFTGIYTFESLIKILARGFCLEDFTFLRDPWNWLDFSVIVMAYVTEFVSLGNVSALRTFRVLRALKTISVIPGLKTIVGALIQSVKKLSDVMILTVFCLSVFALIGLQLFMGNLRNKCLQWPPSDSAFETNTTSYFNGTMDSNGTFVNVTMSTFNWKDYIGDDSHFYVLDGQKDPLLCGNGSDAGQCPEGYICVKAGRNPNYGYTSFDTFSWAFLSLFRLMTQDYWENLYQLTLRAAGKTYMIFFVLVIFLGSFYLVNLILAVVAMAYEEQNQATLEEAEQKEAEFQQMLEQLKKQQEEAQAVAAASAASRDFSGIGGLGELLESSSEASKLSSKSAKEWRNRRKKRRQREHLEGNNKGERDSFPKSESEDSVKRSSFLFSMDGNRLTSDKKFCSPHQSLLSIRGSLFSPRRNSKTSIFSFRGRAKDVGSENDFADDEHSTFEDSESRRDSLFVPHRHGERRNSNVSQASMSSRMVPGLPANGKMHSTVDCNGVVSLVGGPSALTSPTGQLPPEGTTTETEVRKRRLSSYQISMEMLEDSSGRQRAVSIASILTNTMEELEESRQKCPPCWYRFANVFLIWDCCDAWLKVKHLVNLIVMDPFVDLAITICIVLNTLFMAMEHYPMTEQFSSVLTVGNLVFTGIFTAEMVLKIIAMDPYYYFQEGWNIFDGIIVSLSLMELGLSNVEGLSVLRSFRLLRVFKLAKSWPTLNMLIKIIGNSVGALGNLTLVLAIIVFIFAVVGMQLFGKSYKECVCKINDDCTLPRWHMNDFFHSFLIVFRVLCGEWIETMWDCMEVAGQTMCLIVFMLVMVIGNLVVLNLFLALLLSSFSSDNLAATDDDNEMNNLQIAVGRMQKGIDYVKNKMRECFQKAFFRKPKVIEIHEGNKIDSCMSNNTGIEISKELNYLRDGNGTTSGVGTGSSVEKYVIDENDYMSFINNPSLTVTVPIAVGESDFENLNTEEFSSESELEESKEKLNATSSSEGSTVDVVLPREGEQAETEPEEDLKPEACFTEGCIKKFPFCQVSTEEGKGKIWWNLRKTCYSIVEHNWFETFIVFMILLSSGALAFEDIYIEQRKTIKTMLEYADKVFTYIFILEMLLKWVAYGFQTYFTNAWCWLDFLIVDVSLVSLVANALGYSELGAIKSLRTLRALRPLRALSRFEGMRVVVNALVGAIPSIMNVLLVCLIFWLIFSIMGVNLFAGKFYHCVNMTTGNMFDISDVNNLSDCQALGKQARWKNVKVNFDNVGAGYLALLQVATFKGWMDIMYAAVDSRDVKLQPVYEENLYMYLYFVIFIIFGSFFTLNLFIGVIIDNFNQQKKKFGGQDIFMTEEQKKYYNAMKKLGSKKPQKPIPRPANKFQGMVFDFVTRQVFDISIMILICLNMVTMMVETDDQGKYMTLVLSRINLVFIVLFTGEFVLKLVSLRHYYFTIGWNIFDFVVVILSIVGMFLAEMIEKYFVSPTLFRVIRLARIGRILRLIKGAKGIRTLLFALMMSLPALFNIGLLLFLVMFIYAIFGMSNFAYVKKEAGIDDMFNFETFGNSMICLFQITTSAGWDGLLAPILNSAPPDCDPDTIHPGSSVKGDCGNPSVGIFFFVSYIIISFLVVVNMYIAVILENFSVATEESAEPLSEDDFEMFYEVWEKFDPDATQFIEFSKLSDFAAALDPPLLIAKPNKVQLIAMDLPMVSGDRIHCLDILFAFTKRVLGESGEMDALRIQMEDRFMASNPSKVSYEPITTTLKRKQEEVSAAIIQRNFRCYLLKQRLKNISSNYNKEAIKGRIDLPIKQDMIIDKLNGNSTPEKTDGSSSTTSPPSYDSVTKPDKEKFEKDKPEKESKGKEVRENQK

target: T1, hNaV1.3 channels (Homo sapiens, UniProt Q9NY46); experiment: Use-dependent inhibition of NaV1.3 currents, IonWorks Quattro planar array electrophysiology; type: cell-based; details: use-dependent; concentration producing 15% inhibition, 10th versus 1st depolarizing pulse, 10 Hz
T1 construct: expressed in transfected cells

| Structure (SMILES) | pUD15 against NaV1.3 |
| --- | --- |
| CC(C)OC(=O)c1cccnc1N1CCN(Cc2ccc(Oc3ccc(Br)cc3)cc2)CC1 [Example 337, 1-methylethyl 2-[4-({4-[(4-bromophenyl)oxy]phenyl}methyl)-1-piperazinyl]-3-pyridinecarboxylate] | 4-4.99 |
| Cc1ccc(Oc2cccc(CN3CCN(c4ncccc4C(=O)OC(C)C)CC3)c2)cc1 [Example 339, 1-methylethyl 2-[4-({3-[(4-methylphenyl)oxy]phenyl}methyl)-1-piperazinyl]-3-pyridinecarboxylate] | 4-4.99 |
| CC(C)OC(=O)c1cccnc1N1CCN(Cc2ccc(Oc3cccc(Cl)c3)cc2)CC1 [Example 341, 1-methylethyl 2-[4-({4-[(3-chlorophenyl)oxy]phenyl}methyl)-1-piperazinyl]-3-pyridinecarboxylate] | 4-4.99 |
| CC(C)OC(=O)c1cccnc1N1CCN(Cc2ccc3c(c2)Cc2ccccc2-3)CC1 [Example 344, 1-methylethyl 2-[4-(9H-fluoren-2-ylmethyl)-1-piperazinyl]-3-pyridinecarboxylate] | 4-4.99 |
| CC(C)OC(=O)c1cccnc1N1CCN(Cc2ccc(-c3ccccc3)cc2)CC1 [Example 345, 1-methylethyl 2-[4-(4-biphenylylmethyl)-1-piperazinyl]-3-pyridinecarboxylate] | 4-4.99 |
| CC(C)OC(=O)c1cccnc1N1CCN(Cc2cccc(Oc3ccc(Cl)c(Cl)c3)c2)CC1 [Example 348, 1-methylethyl 2-[4-({3-[(3,4-dichlorophenyl)oxy]phenyl}methyl)-1-piperazinyl]-3-pyridinecarboxylate] | 4-4.99 |
| Cc1ccc(-c2cccc(CN3CCN(c4ncccc4C(=O)OC(C)C)CC3)c2)cc1 [Example 349, 1-methylethyl 2-{4-[(4′-methyl-3-biphenylyl)methyl]-1-piperazinyl}-3-pyridinecarboxylate] | 5-5.99 |
| Cc1ccc(-c2ccc(CN3CCN(c4ncccc4C(=O)OC(C)C)CC3)cc2)cc1 [Example 351, 1-methylethyl 2-{4-[(4′-methyl-4-biphenylyl)methyl]-1-piperazinyl}-3-pyridinecarboxylate] | 5-5.99 |
| CCn1c2ccccc2c2cc(CN3CCN(c4ncccc4C(=O)OC(C)C)CC3)ccc21 [Example 353, 1-methylethyl 2-{4-[(9-ethyl-9H-carbazol-3-yl)methyl]-1-piperazinyl}-3-pyridinecarboxylate] | 5-5.99 |
| CC(C)OC(=O)c1cccnc1N1CCN(Cc2ccc(Oc3ccc(Cl)cc3)cc2)CC1 [Example 355, 1-methylethyl 2-[4-({4-[(4-chlorophenyl)oxy]phenyl}methyl)-1-piperazinyl]-3-pyridinecarboxylate] | 4-4.99 |
| CC(C)OC(=O)c1cccnc1N1CCN(Cc2cccc(-c3ccc(Cl)cc3)c2)CC1 [Example 356, 1-methylethyl 2-{4-[(4′-chloro-3-biphenylyl)methyl]-1-piperazinyl}-3-pyridinecarboxylate] | 5-5.99 |
| CC(C)OC(=O)c1cccnc1N1CCN(Cc2ccc(Oc3ccc(Cl)cc3Cl)cc2)CC1 [Example 358, 1-methylethyl 2-[4-({4-[(2,4-dichlorophenyl)oxy]phenyl}methyl)-1-piperazinyl]-3-pyridinecarboxylate] | 4-4.99 |
| CC(C)OC(=O)c1cccnc1N1CCN(Cc2ccccc2Oc2ccc(Cl)cc2)CC1 [Example 361, 1-methylethyl 2-[4-({2-[(4-chlorophenyl)oxy]phenyl}methyl)-1-piperazinyl]-3-pyridinecarboxylate] | 4-4.99 |
| COC(=O)c1ccc(-c2ccc(CN3CCN(c4ncccc4C(=O)OC(C)C)CC3)cc2)cc1 [Example 363, 1-methylethyl 2-[4-({4′-[(methyloxy)carbonyl]-4-biphenylyl}methyl)-1-piperazinyl]-3-pyridinecarboxylate] | 4-4.99 |
| CC(C)OC(=O)c1cccnc1N1CCN(Cc2ccc(-c3ccccc3C(F)(F)F)cc2)CC1 [Example 370, 1-methylethyl 2-(4-{[2′-(trifluoromethyl)-4-biphenylyl]methyl}-1-piperazinyl)-3-pyridinecarboxylate] | 4-4.99 |
| CC(C)OC(=O)c1cccnc1N1CCN(Cc2cccc(Oc3cccc(C(F)(F)F)c3)c2)CC1 [Example 372, 1-methylethyl 2-{4-[(3-{[3-(trifluoromethyl)phenyl]oxy}phenyl)methyl]-1-piperazinyl}-3-pyridinecarboxylate] | 5-5.99 |
| COc1cccc(CN2CC[C@H](N(C)c3ncccc3C(=O)OC(C)C)C2)c1OCc1ccccc1 [Example 387, 1-methylethyl 2-{methyl[(3S)-1-({3-(methyloxy)-2-[(phenylmethyl)oxy]phenyl}methyl)-3-pyrrolidinyl]amino}-3-pyridinecarboxylate] | 5-5.99 |
| CC(C)OC(=O)c1cccnc1N1CCN(Cc2cccc(OCc3ccc(C(C)(C)C)cc3)c2)CC1 [Example 396, 1-methylethyl 2-(4-{[3-({[4-(1,1-dimethylethyl)phenyl]methyl}oxy)phenyl]methyl}-1-piperazinyl)-3-pyridinecarboxylate] | 5-5.99 |
| CC(C)OC(=O)c1cccnc1N1CCN(Cc2cccc(OCc3cccc4ccccc34)c2)CC1 [Example 413, 1-methylethyl 2-[4-({3-[(1-naphthalenylmethyl)oxy]phenyl}methyl)-1-piperazinyl]-3-pyridinecarboxylate] | 5-5.99 |

| Structure (SMILES) | pUD15 against NaV1.3 |
| --- | --- |
| CC(C)OC(=O)c1cccnc1N1CCN(Cc2cccc(OCc3cccc(Cl)c3Cl)c2)CC1 [Example 416, 1-methylethyl 2-{4-[(3-{[(2,3-dichlorophenyl)methyl]oxy}phenyl)methyl]-1-piperazinyl}-3-pyridinecarboxylate] | 4-4.99 |
| COc1cc(Cl)ccc1COc1cccc(CN2CCN(c3ncccc3C(=O)OC(C)C)CC2)c1 [Example 418, 1-methylethyl 2-(4-{[3-({[4-chloro-2-(methyloxy)phenyl]methyl}oxy)phenyl]methyl}-1-piperazinyl)-3-pyridinecarboxylate] | 4-4.99 |
| COc1ccc(COc2cccc(CN3CCN(c4ncccc4C(=O)OC(C)C)CC3)c2)cc1 [Example 419, 1-methylethyl 2-(4-{[3-({[4-(methyloxy)phenyl]methyl}oxy)phenyl]methyl}-1-piperazinyl)-3-pyridinecarboxylate] | 5-5.99 |
| CC(C)OC(=O)c1cccnc1N1CCN(Cc2cccc(OCc3ccc(C(C)C)cc3)c2)CC1 [Example 420, 1-methylethyl 2-(4-{[3-({[4-(1-methylethyl)phenyl]methyl}oxy)phenyl]methyl}-1-piperazinyl)-3-pyridinecarboxylate] | 4-4.99 |
| COc1ccc(COc2cccc(CN3CCN(c4ncccc4C(=O)OC(C)C)CC3)c2)c(OC)c1 [Example 422, 1-methylethyl 2-(4-{[3-({[2,4-bis(methyloxy)phenyl]methyl}oxy)phenyl]methyl}-1-piperazinyl)-3-pyridinecarboxylate] | 4-4.99 |
| CC(C)OC(=O)c1cccnc1N1CCN(Cc2ccc(OCc3cccc(Cl)c3)cc2)CC1 [Example 425] | 5-5.99 |
| Cc1cc(C)cc(COc2ccc(CN3CCN(c4ncccc4C(=O)OC(C)C)CC3)cc2)c1 [Example 431] | 4-4.99 |
| CCCCOc1ccc(COc2ccc(CN3CCN(c4ncccc4C(=O)OC(C)C)CC3)cc2)cc1 [Example 437] | 4-4.99 |
| CC(C)OC(=O)c1cccnc1N1CCN(Cc2ccc(OCc3c(Cl)cccc3Cl)cc2)CC1 [Example 444] | 4-4.99 |
| CCOc1ccccc1COc1ccc(CN2CCN(c3ncccc3C(=O)OC(C)C)CC2)cc1 [Example 445] | 4-4.99 |
| CC(C)OC(=O)c1cccnc1N1CCN(Cc2ccc(OCc3ccccc3-c3ccccc3)cc2)CC1 [Example 450] | 4-4.99 |
| COc1cc(Cl)ccc1COc1ccc(CN2CCN(c3ncccc3C(=O)OC(C)C)CC2)cc1 [Example 454] | 4-4.99 |
| COc1ccc(COc2ccc(CN3CCN(c4ncccc4C(=O)OC(C)C)CC3)cc2)c(OC)c1 [Example 461] | 5-5.99 |
| CC(C)OC(=O)c1cccnc1N1CCN(Cc2ccc(OCc3ccccc3C(F)(F)F)cc2)CC1 [Example 462] | 4-4.99 |
| CCN(Cc1ccccc1-c1ccc(F)cc1)[C@@H]1CCN(c2ncccc2C(=O)OC(C)C)C1 [Example 472, 1-Methylethyl-2-((3R)-3-{ethyl[(4′-fluoro-2-biphenylyl)methyl]amino}-1-pyrrolidinyl)-3-pyridinecarboxylate] | 5-5.99 |
| CCNCc1ccc(CN2CCN(c3ncccc3C(=O)OC(C)C)CC2)cc1 [Example 473, 1-Methylethyl 2-[4-({4-[(ethylamino)methyl]phenyl}methyl)-1-piperazinyl]-3-pyridine carboxylate dihydrochloride] | 4-4.99 |
| CCN(Cc1ccc(CN2CCN(c3ncccc3C(=O)OC(C)C)CC2)cc1)Cc1ccc(S(=O)(=O)N(C)C)cc1 [Example 487, 1-methylethyl 2-{4-[(4-{[({4 [(dimethylamino)sulfonyl]phenyl}methyl)(ethyl)amino]methyl}phenyl)methl]-1-piperazinyl}-3-pyridinecarboxylate] | 5-5.99 |
| CC(C)OC(=O)c1cccnc1N1CCN(Cc2cnc(CN3CCN(c4ncccc4C(=O)OC(C)C)CC3)cn2)CC1 [Example 510, bis(1-methylethyl) 2,2′-[2,5-pyrazinediylbis(methanediyl-4,1-piperazinediyl)]di(3-pyridine carboxylate)] | 4-4.99 |

same assay, conditions: use-dependent; concentration producing 15% inhibition, 10th versus 1st depolarizing pulse, 10 Hz; dihydrochloride

| Structure (SMILES) | pUD15 against NaV1.3 |
| --- | --- |
| CCN(Cc1ccc(CN2CCN(c3ncccc3C(=O)OC(C)C)CC2)cc1)Cc1ccccc1F [Example 519, 1-methylethyl 2-(4-{[4-({ethyl[(2-fluorophenyl)methyl]amino}methyl)phenyl]methyl}-1-piperazinyl)-3-pyridinecarboxylate dihydrochloride] | 5-5.99 |
